Source: patent US6810371B1 (priority 1906, dated 2004)

Assays:
[1] = Concentration in indoor air after residual spraying of aerosol (Examples 1 to 4); details: for mean annual concentration in the air including 8-week spraying period / mean concentration in the air during the spraying period / maximum concentration in the air immediately after spraying / CONCENTRATION IN AIR 25 [cm] / CONCENTRATION IN AIR 120 [cm]: Example 1; for mean concentration in the air during the spraying period: 8-week spraying period; for maximum concentration in the air immediately after spraying: average at heights of 25 cm and 120 cm from center of floor; for CONCENTRATION IN AIR 25 [cm] / CONCENTRATION IN AIR 120 [cm]: mean
[2] = Residual amount at floor, wall and ceiling after residual spraying (Example 1); details: for RESIDUAL AMOUNT FLOOR / RESIDUAL AMOUNT WALL: mean
[3] = Example 4, air-conditioner used
[4] = window closed state, air-conditioner not used
[5] = SPRAYING PERIOD, mean of inflow, discharge and lateral sides

Row | Structure (SMILES) | mean annual concentration in the air including 8-week spraying period [1] [μg/m^3] | mean concentration in the air during the spraying period [1] [μg/m^3] | maximum concentration in the air immediately after spraying [1] [μg/m^3] | CONCENTRATION IN AIR 25 [cm] ([1]; ANNUAL) [μg/m^3] | CONCENTRATION IN AIR 120 [cm] ([1]; ANNUAL) [μg/m^3] | CONCENTRATION IN AIR 25 [cm] ([1]; SPRAYING PERIOD) [μg/m^3] | CONCENTRATION IN AIR 120 [cm] ([1]; SPRAYING PERIOD) [μg/m^3] | mean concentration in the air ([1]; Example 3, window opened for 5 minutes) [μg/m^3] | mean concentration in the air ([1]; Example 3, window opened for 2 hours) [μg/m^3] | mean concentration in the air [1, 3] [μg/m^3] | mean concentration in the air [1, 4] [μg/m^3] | residual amount at the wall on the discharge side [2] [μg/m^2] | residual amount at the wall on the inflow side [2] [μg/m^2] | residual amount at the wall on the lateral side [2] [μg/m^2] | RESIDUAL AMOUNT FLOOR ([2]; ANNUAL) [μg/m^2] | RESIDUAL AMOUNT WALL ([2]; ANNUAL) [μg/m^2] | RESIDUAL AMOUNT FLOOR ([2]; SPRAYING PERIOD) [μg/m^2] | RESIDUAL AMOUNT WALL [2, 5] [μg/m^2]
1 | CC(C)=CC1[C@@H](C(=O)OCc2cccc(Oc3ccccc3)c2)C1(C)C (stereo in doubt) [d-phenothrin] | 0.43 | 2.35 | 752 | 0.41 | 0.45 | 2.35 | 2.35 | 2.88 | 1.19 | 11.6 | 14.8 | 45 | 28 | 33 | 360 | 7 | 2200 | 33
2 | CC(C)=CC1[C@@H](C(=O)OCN2C(=O)C3=C(CCCC3)C2=O)C1(C)C (stereo in doubt) [d-tetramethrin] | 0.53 | 3.25 | 1040 | 0.54 | 0.52 | 3.31 | 3.19 |  |  | 15.5 | 20.2 | 58 | 35 | 43 | 400 | 15 | 2500 | 43
